Laboratory results taken from the supplement of paper PMC10849652.
This is one part of the list.

By UniProt entry, the sequences of proteins in these tests, tags left out. Where a name states a change or a piece, a line headed by the entry shows the natural chain unless it says otherwise.
UniProt P01037: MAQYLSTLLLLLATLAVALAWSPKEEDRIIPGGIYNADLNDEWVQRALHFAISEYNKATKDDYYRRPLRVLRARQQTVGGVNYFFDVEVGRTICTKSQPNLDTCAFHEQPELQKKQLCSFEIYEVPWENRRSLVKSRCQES
UniProt O95715: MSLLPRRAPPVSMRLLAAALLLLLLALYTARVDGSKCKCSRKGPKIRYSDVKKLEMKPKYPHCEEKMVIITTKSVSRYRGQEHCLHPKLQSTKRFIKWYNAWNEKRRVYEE
UniProt Q86T65: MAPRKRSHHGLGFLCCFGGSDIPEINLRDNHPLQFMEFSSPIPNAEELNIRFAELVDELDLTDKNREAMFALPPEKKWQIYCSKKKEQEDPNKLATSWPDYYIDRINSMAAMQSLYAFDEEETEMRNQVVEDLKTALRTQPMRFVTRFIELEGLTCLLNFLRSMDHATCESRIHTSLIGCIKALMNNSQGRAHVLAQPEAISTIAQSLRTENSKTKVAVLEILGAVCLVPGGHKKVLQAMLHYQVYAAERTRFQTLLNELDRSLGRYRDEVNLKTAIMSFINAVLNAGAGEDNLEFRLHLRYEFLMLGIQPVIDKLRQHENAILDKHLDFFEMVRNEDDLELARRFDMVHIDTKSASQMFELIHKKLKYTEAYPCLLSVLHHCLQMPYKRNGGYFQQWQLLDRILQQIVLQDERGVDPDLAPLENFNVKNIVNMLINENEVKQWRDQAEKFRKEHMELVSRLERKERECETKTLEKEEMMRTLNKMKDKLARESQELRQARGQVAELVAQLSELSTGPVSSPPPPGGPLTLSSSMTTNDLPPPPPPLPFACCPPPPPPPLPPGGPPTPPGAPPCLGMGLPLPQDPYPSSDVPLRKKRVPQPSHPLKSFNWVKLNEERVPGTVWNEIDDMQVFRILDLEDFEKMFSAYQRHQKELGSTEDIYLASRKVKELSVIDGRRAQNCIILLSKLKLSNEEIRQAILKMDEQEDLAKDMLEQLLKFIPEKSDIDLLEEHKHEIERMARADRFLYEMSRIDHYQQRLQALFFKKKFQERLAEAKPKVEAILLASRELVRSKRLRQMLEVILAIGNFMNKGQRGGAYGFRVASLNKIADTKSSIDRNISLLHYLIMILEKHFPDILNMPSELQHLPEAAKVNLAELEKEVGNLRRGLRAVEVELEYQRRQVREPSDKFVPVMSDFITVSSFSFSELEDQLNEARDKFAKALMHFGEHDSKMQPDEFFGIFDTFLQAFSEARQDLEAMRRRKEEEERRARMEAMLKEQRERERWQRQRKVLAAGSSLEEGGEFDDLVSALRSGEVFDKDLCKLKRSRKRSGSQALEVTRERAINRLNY
UniProt Q9BWK5: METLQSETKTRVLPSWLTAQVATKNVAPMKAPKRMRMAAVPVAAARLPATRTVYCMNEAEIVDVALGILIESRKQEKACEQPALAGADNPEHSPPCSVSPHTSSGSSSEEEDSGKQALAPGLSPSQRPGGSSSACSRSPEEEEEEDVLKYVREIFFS
UniProt Q8IZD4: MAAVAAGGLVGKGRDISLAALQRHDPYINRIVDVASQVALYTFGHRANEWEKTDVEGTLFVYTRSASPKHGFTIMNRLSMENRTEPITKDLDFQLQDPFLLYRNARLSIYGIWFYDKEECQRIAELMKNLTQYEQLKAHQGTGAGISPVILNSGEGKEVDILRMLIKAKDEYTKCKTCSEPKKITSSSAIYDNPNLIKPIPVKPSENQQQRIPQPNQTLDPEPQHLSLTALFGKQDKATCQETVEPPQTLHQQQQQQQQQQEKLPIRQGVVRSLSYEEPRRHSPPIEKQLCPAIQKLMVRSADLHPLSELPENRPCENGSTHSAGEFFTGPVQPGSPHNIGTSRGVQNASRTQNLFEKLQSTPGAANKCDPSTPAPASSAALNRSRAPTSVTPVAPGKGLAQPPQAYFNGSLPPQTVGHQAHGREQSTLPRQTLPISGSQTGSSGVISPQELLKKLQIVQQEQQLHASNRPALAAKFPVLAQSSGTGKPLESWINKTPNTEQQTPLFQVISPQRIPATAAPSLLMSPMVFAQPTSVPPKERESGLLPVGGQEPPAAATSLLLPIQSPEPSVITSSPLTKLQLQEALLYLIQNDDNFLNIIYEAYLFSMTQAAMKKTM
UniProt Q9NXE8: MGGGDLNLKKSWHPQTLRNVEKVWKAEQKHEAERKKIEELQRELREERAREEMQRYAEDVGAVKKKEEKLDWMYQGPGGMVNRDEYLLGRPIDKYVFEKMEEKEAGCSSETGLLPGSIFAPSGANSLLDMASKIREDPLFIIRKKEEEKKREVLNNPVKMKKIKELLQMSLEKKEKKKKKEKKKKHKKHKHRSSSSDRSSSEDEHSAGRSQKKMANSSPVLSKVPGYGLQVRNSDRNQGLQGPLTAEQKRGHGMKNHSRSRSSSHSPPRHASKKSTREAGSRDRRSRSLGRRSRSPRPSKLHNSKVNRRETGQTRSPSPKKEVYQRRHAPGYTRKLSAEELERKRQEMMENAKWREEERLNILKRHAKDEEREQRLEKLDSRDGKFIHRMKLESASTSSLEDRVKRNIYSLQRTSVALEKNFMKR
UniProt Q9Y5B0: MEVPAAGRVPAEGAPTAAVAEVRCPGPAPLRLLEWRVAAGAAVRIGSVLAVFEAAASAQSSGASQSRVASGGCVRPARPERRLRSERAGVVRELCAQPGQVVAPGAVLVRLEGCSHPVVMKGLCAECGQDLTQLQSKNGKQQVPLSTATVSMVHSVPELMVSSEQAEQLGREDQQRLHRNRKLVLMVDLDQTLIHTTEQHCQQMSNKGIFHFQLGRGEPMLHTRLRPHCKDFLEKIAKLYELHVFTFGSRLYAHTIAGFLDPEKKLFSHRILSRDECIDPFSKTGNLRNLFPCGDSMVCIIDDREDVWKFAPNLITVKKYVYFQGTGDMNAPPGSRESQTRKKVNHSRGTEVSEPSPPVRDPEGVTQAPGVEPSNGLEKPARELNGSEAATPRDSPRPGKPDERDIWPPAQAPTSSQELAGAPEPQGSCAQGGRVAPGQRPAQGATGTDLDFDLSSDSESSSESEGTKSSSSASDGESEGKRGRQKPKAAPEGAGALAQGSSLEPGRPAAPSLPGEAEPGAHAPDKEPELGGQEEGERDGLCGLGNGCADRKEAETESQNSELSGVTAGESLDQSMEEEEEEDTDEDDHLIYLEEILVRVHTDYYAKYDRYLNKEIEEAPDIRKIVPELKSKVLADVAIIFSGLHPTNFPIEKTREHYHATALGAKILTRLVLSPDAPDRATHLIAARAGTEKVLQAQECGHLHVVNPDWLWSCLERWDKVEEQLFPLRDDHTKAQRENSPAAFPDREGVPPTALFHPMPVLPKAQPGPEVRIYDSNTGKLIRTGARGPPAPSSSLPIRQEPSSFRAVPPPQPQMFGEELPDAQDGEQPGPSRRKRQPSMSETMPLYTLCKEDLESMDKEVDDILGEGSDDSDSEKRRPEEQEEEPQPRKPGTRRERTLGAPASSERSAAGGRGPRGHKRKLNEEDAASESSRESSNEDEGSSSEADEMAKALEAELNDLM
UniProt Q9Y4D1, whole entry, looked up: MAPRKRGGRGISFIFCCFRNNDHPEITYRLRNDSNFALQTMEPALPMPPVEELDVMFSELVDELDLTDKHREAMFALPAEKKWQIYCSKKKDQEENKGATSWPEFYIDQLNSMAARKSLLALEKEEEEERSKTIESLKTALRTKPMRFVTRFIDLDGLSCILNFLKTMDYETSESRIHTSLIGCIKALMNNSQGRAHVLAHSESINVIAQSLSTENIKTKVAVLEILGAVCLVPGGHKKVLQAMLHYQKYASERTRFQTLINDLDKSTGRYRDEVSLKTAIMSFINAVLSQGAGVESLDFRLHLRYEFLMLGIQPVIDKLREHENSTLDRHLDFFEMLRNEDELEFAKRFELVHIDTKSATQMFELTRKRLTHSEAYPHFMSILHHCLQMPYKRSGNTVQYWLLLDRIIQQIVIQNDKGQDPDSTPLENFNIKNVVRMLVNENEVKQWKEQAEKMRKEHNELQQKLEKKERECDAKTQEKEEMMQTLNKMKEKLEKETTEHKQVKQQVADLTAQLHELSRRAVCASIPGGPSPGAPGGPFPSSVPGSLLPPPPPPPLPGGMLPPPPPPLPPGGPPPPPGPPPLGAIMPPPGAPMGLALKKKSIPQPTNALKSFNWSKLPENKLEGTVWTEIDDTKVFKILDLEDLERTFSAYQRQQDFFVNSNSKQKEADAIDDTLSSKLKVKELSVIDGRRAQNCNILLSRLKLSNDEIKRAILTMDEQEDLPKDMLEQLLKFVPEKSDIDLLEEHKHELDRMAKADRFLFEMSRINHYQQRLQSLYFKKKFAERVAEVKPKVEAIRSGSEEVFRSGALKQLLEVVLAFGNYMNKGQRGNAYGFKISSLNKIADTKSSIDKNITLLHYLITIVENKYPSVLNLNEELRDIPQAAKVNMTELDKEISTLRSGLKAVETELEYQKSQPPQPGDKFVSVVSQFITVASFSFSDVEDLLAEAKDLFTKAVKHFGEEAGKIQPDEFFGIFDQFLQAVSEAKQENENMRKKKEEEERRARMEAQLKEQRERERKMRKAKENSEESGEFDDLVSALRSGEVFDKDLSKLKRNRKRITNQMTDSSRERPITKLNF
UniProt Q8N8Z6: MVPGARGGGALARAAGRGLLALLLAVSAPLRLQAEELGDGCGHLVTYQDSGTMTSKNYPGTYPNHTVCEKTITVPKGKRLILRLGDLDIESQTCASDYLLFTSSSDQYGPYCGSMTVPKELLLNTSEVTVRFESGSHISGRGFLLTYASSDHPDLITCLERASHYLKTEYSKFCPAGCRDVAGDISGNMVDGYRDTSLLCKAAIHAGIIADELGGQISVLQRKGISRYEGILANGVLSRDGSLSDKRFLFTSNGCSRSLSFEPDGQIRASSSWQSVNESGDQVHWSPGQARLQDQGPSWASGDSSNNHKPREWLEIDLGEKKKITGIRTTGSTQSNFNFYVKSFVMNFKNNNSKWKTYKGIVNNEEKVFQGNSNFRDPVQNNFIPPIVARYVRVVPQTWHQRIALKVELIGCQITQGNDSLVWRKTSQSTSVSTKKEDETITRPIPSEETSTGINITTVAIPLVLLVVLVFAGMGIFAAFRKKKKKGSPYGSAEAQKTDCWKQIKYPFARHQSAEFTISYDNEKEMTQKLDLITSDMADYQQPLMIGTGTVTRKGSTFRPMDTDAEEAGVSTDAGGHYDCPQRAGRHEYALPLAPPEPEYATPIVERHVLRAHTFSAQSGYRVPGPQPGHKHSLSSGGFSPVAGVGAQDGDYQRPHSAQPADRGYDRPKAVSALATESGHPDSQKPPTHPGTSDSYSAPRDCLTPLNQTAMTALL
UniProt Q6ZWL3: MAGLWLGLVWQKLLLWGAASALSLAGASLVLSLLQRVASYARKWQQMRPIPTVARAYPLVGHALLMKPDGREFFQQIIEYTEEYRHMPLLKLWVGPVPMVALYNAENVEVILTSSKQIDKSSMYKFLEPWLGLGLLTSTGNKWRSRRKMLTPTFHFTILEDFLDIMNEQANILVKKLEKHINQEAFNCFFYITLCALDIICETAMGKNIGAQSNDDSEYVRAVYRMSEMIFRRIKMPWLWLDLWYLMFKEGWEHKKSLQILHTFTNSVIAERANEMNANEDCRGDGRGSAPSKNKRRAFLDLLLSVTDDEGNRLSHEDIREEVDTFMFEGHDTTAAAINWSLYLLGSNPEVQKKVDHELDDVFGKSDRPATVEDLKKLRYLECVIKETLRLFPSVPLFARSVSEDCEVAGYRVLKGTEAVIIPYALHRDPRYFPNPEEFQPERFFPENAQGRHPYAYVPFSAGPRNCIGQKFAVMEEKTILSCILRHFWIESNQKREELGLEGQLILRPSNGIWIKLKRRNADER
UniProt Q96DE9: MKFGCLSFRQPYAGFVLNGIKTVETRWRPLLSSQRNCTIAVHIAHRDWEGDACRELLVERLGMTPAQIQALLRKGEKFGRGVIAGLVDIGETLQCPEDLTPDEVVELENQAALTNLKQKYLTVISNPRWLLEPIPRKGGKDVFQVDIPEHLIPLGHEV
UniProt O95476: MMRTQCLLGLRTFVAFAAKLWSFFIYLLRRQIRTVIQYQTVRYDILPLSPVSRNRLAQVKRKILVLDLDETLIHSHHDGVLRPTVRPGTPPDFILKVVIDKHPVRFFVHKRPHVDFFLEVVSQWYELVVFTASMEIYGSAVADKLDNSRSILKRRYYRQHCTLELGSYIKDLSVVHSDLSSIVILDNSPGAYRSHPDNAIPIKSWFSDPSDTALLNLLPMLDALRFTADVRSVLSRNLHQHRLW
UniProt Q7LFL8: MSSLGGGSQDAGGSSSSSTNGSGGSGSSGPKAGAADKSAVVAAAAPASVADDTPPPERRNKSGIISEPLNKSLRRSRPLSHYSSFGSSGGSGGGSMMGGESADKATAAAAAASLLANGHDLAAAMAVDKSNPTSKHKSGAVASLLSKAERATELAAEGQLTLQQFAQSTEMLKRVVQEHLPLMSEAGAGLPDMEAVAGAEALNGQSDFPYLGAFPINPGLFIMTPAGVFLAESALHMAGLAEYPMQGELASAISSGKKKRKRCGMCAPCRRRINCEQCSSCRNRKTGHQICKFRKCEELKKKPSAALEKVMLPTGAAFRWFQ

Each target was assayed with CN(CCOC1=CC=C(C=C1)C[C@H]2C(=O)NC(=O)S2)C3=CC=CC=N3 (racemic) [rosiglitazone] (assay: log2 fold change, soluble protein after heating vs DMSO (PISA); higher = thermal stabilisation; K562 cells, 10 uM, 30 min; active = over 0.2 and 3.5 SD of the protein, either way, in both replicates (recomputed)).
How it was run: (§1)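 K562 cells at 2×10^6 cells/mL were treated for 30 min with 10 μM compound, and aliquots were heated for 3 min over 48°C-58°C before pooling. Extraction used PBS with 0.5% NP-40 at 4°C, and soluble protein was the supernatant after 21,000xg for 90 min, measured by TMTpro 16plex LC-MS/MS with channel sums equalised. Thermal stability values, relative to control samples and from duplicates, are log2 fold changes.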

log2 fold change, inactive:
CST1 (UniProt P01037) 0.073
CYP2S1 isoform 2 (UniProt Q96SQ9) 0.101
CXCL14 (UniProt O95715) -0.159
DAPK1 isoform 3 (UniProt P53355) 0.045
CST4 (UniProt P01036) -0.113
CYTH2 (UniProt Q99418) 0.042
CYP46A1 (UniProt Q9Y6A2) 0.002
DAAM2 (UniProt Q86T65) 0.056
CYREN isoform 4 (UniProt Q9BWK5) -0.085
CYP2R1 (UniProt Q6VVX0) 0.001
DCP1B (UniProt Q8IZD4) -0.078
CWC25 (UniProt Q9NXE8) -0.013

These targets were tested with CN1C2=C(C3=C1C(=O)N(N=C3)CC4=CC(=CC=C4)N)SC(=C2)S(=O)C in the same assay as above.
How it was run: as §1

log2 fold change, inactive:
CST1 (UniProt P01037) 0.199
CYP2S1 isoform 2 (UniProt Q96SQ9) -0.057
CTDP1 (UniProt Q9Y5B0) -0.01
DAAM1 (UniProt Q9Y4D1) 0.424
DCBLD1 (UniProt Q8N8Z6) -0.261
CYP4V2 (UniProt Q6ZWL3) -0.042
CXorf40B (UniProt Q96DE9) -0.137
CTDNEP1 (UniProt O95476) -0.074
CTNNBIP1 (UniProt Q9NSA3) -0.045
CTSS (UniProt P25774) 0.051
CTDSPL2 (UniProt Q05D32) 0.076
CUL7 isoform 2 (UniProt Q14999) 0.092
DCP2 (UniProt Q8IU60) 0.319
DCBLD2 isoform 2 (UniProt Q96PD2) 0.178
DCAF4 (UniProt Q8WV16) 0.128
CXXC1 isoform 2 (UniProt Q9P0U4) -0.104
CXXC5 (UniProt Q7LFL8) 0.019
CYTH2 (UniProt Q99418) 0.118
CYP46A1 (UniProt Q9Y6A2) 0.04
DAAM2 (UniProt Q86T65) -0.018
CYREN isoform 4 (UniProt Q9BWK5) 0
DCUN1D4 isoform 3 (UniProt Q92564) -0.116
